Source: EP0367040A1, “Compounds for the treatment of urinary incontinence” (Kabi Pharmacia AB, priority 1988, dated 1990)

Tested on: rabbit urinary bladder
Assay: Inhibition of electrically induced contractions of isolated urinary bladder strips
Format: cell-based
Details: Oryctolagus cuniculus, read-out: El.stim. rabbit urinary bladder IC50

**Q.** For `CCN(CC)CC#CCOC(=O)C(O)(c1ccccc1)C1CCCCC1` (stereo not shown) [Oxybutynin, 2-cyclohexyl-2-hydroxy-2-phenylacetic acid 4-(diethylamino)-2-butynyl ester, reference compound], which IC50 is on record?
**A.** Its IC50 is 2900 nM.
